PubChem BioAssay AID743454 – Peter MacCallum Cancer Centre, 2014

Test: 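Knock-downs lowering viability or raising caspase 3/7 activity in vorinostat-treated resistant cells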 (primary screen)
Cell system: human HCT116-VR colon cancer cells, selected for vorinostat resistance
Reagent: siRNA pool against human genes, 40 nM siRNA pool
Time to read-out: vorinostat for 24 h, read-out about 72 h after transfection
Conditions: vorinostat at 2.5 µM final
Detection: 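Cell viability by CellTiter-Fluor and caspase 3/7 activity by luminescence, each scaled to mock wells per plate, duplicates averaged, then robust z-scored over all plates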
Reading the numbers: viability robust z-score: higher = more viable cells than screen typical; caspase robust z-score: higher = more caspase 3/7 activity than screen typical
Call rule: 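a knock-down is a hit when classed RV1 or RV2 for lowered viability, or CA1 or CA2 for caspase activation; those lethal without drug were dropped; hits were retested singly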
In all, the deposit lists about 18,000 reagents; below is a part drawn at random. Over the whole deposit, 450 (2.5%) were called active. 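Single biological run; no consistent viability z cut-off exists, so the class columns, not z-scores, define the calls.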 Reagent sequences are not shown.

| gene knocked down | PubChem SID | viability hit class | caspase hit class | viability robust z-score | caspase robust z-score | activity call |
| --- | --- | --- | --- | --- | --- | --- |
| NECTIN1 (nectin cell adhesion molecule 1) | SID135620807 | no change | no change | 0.07 | -0.62 | inactive |
| C1QTNF7 (C1q and TNF related 7) | SID135623187 | RV2 (reduced viability) | no change | -4.06 | -1.48 | active |
| BNIP3 (BCL2 interacting protein 3) | SID134310556 | no change | no change | 0.06 | -0.74 | inactive |
| CNIH3 (cornichon family AMPA receptor auxiliary protein 3) | SID152150114 | no change | no change | -0.66 | 0.25 | inactive |
| CFAP251 (cilia and flagella associated protein 251) | SID135623013 | no change | no change | -0.09 | -0.68 | inactive |
| SUFU (SUFU negative regulator of hedgehog signaling) | SID134319427 | no change | no change | 1.94 | -0.36 | inactive |
| LRRN3 (leucine rich repeat neuronal 3) | SID152151828 | no change | no change | 0.34 | -0.92 | inactive |
| SLC18B1 | SID152146897 | no change | no change | 0.58 | -0.26 | inactive |
| FBLN2 (fibulin 2) | SID152150374 | no change | no change | -0.43 | 0.3 | inactive |
| CIMAP1C (ciliary microtubule associated protein 1C) | SID152148786 | no change | no change | 0.47 | 0.68 | inactive |
| ORC4 (origin recognition complex subunit 4) | SID56478628 | no change | no change | -0.28 | -0.85 | inactive |
| SMCO3 (single-pass membrane protein with coiled-coil domains 3) | SID135625307 | no change | no change | 0.12 | 0.88 | inactive |
| ATF4 (activating transcription factor 4) | SID134310757 | no change | no change | -0.8 | 0.78 | inactive |
| GSTA5 (glutathione S-transferase alpha 5) | SID134313900 | no change | no change | 0.6 | -0.17 | inactive |
| TMEM126A (transmembrane protein 126A) | SID134318918 | no change | no change | -0.4 | -0.66 | inactive |
| KCNK9 (potassium two pore domain channel subfamily K member 9) | SID134310657 | no change | no change | -0.44 | 0.81 | inactive |
| LSP1 (lymphocyte specific protein 1) | SID152156762 | no change | no change | 1.09 | -0.09 | inactive |
| ZNF174 (zinc finger protein 174) | SID135623770 | no change | no change | 0.69 | -0.28 | inactive |
| ERO1A (endoplasmic reticulum oxidoreductase 1 alpha) | SID134324187 | no change | no change | -0.28 | 0.29 | inactive |
| ANLN (anillin, actin binding protein) | SID135621262 | no change | no change | -1.84 | 0.49 | inactive |
| TUBA4A (tubulin alpha 4a) | SID134313633 | no change | no change | -2.72 | 0.28 | inactive |
| HOXD4 (homeobox D4) | SID134321509 | no change | no change | 1.27 | -0.44 | inactive |
| KLF5 (KLF transcription factor 5) | SID152154689 | no change | no change | 0.26 | -0.66 | inactive |
| MED28 (mediator complex subunit 28) | SID152155386 | no change | CA2 (caspase activation) | -0.72 | 5.46 | active |
| KAT2A (lysine acetyltransferase 2A) | SID152155377 | no change | no change | 1.07 | -0.9 | inactive |
| NSUN5 (NOP2/Sun RNA methyltransferase 5) | SID134324937 | no change | no change | 1.05 | 0.16 | inactive |
| ARG2 (arginase 2) | SID152148761 | no change | no change | -0.75 | 0.67 | inactive |
| RUNDC1 (RUN domain containing 1) | SID134321649 | no change | no change | 0.5 | 3.57 | inactive |
| ANTXR2 (ANTXR cell adhesion molecule 2) | SID152153065 | no change | no change | 1.09 | 0.72 | inactive |
| C1QTNF1 (C1q and TNF related 1) | SID134318798 | no change | no change | 1.27 | 0.91 | inactive |
| SLC30A6 | SID134312573 | no change | no change | 0.86 | 1.41 | inactive |
| MAGEA12 (MAGE family member A12) | SID135622004 | no change | no change | 0.18 | 0.19 | inactive |
| NECAB3 (N-terminal EF-hand calcium binding protein 3) | SID152149861 | no change | no change | 1.54 | -0.88 | inactive |
| PPIAL4A (peptidylprolyl isomerase A like 4A) | SID134314596 | no change | CA1 (caspase activation) | 0.48 | 6.72 | active |
| NME4 (NME/NM23 nucleoside diphosphate kinase 4) | SID56479075 | no change | no change | 1.72 | 0.04 | inactive |
| LGR5 (leucine rich repeat containing G protein-coupled receptor 5) | SID152151737 | no change | no change | 0.91 | 0.87 | inactive |
| CHODL (chondrolectin) | SID134321148 | no change | no change | -0.96 | 1.1 | inactive |
| MCRIP1 (MAPK regulated corepressor interacting protein 1) | SID135624947 | no change | no change | -0.74 | -0.92 | inactive |
| ACKR3 (atypical chemokine receptor 3) | SID152147303 | no change | no change | 0.57 | 1.91 | inactive |
| ATP23 | SID152151481 | no change | no change | 1.56 | 1.34 | inactive |
| NUCKS1 | SID152150801 | no change | no change | 0.56 | -0.32 | inactive |
| CFAP69 (cilia and flagella associated protein 69) | SID152155724 | no change | no change | 0.84 | -0.52 | inactive |
| MYO16 (myosin XVI) | SID152153007 | no change | no change | -0.9 | -0.14 | inactive |
| CLCA1 (chloride channel accessory 1) | SID152147928 | no change | no change | -0.74 | 0.54 | inactive |
| CDR2L (cerebellar degeneration related protein 2 like) | SID152151397 | no change | no change | 0.29 | 0.76 | inactive |
| FAIM2 (Fas apoptotic inhibitory molecule 2) | SID135623316 | no change | no change | 0.12 | -0.48 | inactive |
| PRR16 (proline rich 16) | SID134324063 | no change | no change | -1.21 | -1 | inactive |
| LRFN2 | SID152149605 | no change | no change | 0.9 | -0.33 | inactive |
| PRB3 (proline rich protein BstNI subfamily 3) | SID152151653 | no change | no change | 0.19 | -0.44 | inactive |
| UGCG (UDP-glucose ceramide glucosyltransferase) | SID135621197 | no change | no change | 0.16 | -0.8 | inactive |
| PAK1 (p21 (RAC1) activated kinase 1) | SID135620692 | no change | no change | 1.19 | 0.98 | inactive |
| NAAA (N-acylethanolamine acid amidase) | SID152153744 | no change | no change | 1.02 | 0.01 | inactive |
| PPFIBP2 (PPFIB scaffold protein 2) | SID135624598 | no change | no change | 0.1 | 2.68 | inactive |
| GADD45B (growth arrest and DNA damage inducible beta) | SID135620751 | no change | no change | 0 | 0.42 | inactive |
| CCNP (cyclin P) | SID134318642 | no change | no change | -0.77 | 0.62 | inactive |
| GCK (glucokinase) | SID56479241 | no change | no change | -1.02 | 2.46 | inactive |
| SCNN1D (sodium channel epithelial 1 subunit delta) | SID134311830 | no change | no change | 0.8 | -0.53 | inactive |

In a second layout: entries from further up
C1QTNF1 (C1q and TNF related 1) [SID134318798]
- viability hit class: no change
- caspase hit class: no change
- viability robust z-score: 1.27
- caspase robust z-score: 0.91
- activity call: inactive

SLC30A6 [SID134312573]
- viability hit class: no change
- caspase hit class: no change
- viability robust z-score: 0.86
- caspase robust z-score: 1.41
- activity call: inactive
